From patent publication WO2018121580A1
Results are given in words; binding and its absence hold for the method and conditions named. Some entries that bind do so weakly or less than the wild type.

Protein sequences, listed by entry. Tags and fused reporters are not part of them. Lines headed by an entry give the natural chain unless they say otherwise; changes in a name come on top. Chains listed by the source or under a name are the forms on record and can include a tag or linker.
CD147 protein (P35613, form named): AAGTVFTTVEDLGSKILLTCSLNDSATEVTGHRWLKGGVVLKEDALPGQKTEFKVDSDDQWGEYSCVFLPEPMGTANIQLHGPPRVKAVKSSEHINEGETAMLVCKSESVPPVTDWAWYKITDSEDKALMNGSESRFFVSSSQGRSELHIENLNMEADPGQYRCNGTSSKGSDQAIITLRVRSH

How the values were obtained:
CD147 protein [1] = biological target: CD147 protein (UniProt P35613); test: ELISA relative binding activity (EC50 against a reference), dilution stability test at 25±2 °C for 7 days
CD147 protein [2] = biological target: CD147 protein (UniProt P35613); test: ELISA relative binding activity (EC50 against a reference), after high temperature, light and freeze-thaw stress
CD147 protein [3] = biological target: CD147 protein (UniProt P35613); test: ELISA relative binding activity (EC50 against a reference), long-term stability test at 2-8 °C for 2 years

Measured: binding

B1: HcHAb18 monoclonal antibody (antibody, human IgG1, kappa, V domains shown)
VH: EVKLEESGGGLVQPGGSMKLSCVASGFTFSDAWMDWVRQSPEKGLEWVAEIRSKANNHAPYYTESVKGRFTISRDDSKSIIYLQMNNLRAEDTGIYYCTRDSTATHWGQGTLVTVSA
VL: SIVMTQTPTFLVVSAGDRVTITCKASQSVINDVAWYQQKPGQSPKLLIFYASNRNTGVPDRFTGSGYGTDFTFTISTVQAEDLAVYFCQQDYSPPFTFGSGTKLEIKR
binds: all assays above
